In the supplement of paper PMC8728848:
Some of the results follow.

Assays:
Assay in all cases: glycan array binding signal (z-score within array); higher = stronger binding
Conditions in all cases: glycan notation: IUPAC condensed, linker removed
[1] = biological target: Gal(a1-3)[Gal(a1-4)]Gal(b1-4)GlcNAc
Method in brief: (§1)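 Negative Z-scores can be read as non-binding. The Z-score is calculated within each array and then averaged across arrays of one protein sequence at different concentrations or buffers and across linkers. Arrays, 3228 in all, were curated from the Consortium for Functional Glycomics database and kept only where the protein sequence was available.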

[2] = biological target: Gal(a1-4)Gal(b1-3)GlcNAc(b1-2)Man(a1-3)[Gal(a1-4)Gal(b1-3)GlcNAc(b1-2)Man(a1-6)]Man(b1-4)GlcNAc(b1-4)GlcNAc
Method in brief: as §1

Gal(a1-4)Gal(b1-4)Glc = biological target: Gal(a1-4)Gal(b1-4)Glc
Method in brief: as §1

Gal(a1-4)Gal(b1-4)GlcNAc = biological target: Gal(a1-4)Gal(b1-4)GlcNAc
Method in brief: as §1

[3] = biological target: Gal(a1-4)Gal(b1-4)GlcNAc(b1-2)Man(a1-3)[Gal(a1-4)Gal(b1-4)GlcNAc(b1-2)Man(a1-6)]Man(b1-4)GlcNAc(b1-4)GlcNAc
Method in brief: as §1

[4] = biological target: Gal(a1-4)Gal(b1-4)GlcNAc(b1-3)Gal(b1-4)Glc
Method in brief: as §1

Gal(a1-4)GlcNAc = biological target: Gal(a1-4)GlcNAc
Method in brief: as §1

Gal(a1-6)Glc = biological target: Gal(a1-6)Glc
Method in brief: as §1

Gal(b1-2)Gal = biological target: Gal(b1-2)Gal
Method in brief: as §1

Gal(b1-3)Gal = biological target: Gal(b1-3)Gal
Method in brief: as §1

Gal(b1-3)Gal(b1-4)GlcNAc = biological target: Gal(b1-3)Gal(b1-4)GlcNAc
Method in brief: as §1

Gal(b1-3)GalNAc = biological target: Gal(b1-3)GalNAc
Method in brief: as §1

[5] = biological target: Gal(b1-3)GalNAc(a1-3)[Fuc(a1-2)]Gal(b1-4)Glc
Method in brief: as §1

[6] = biological target: Gal(b1-3)GalNAc(a1-3)[Fuc(a1-2)]Gal(b1-4)GlcNAc
Method in brief: as §1

Gal(b1-3)GalNAc(b1-3)Gal = biological target: Gal(b1-3)GalNAc(b1-3)Gal
Method in brief: as §1

[7] = biological target: Gal(b1-3)GalNAc(b1-3)Gal(a1-4)Gal(b1-4)Glc
Method in brief: as §1

[8] = biological target: Gal(b1-3)GalNAc(b1-4)Gal(b1-4)Glc
Method in brief: as §1

[9] = biological target: Gal(b1-3)GalNAc(b1-4)[Neu5Ac(a2-3)]Gal(b1-4)Glc
Method in brief: as §1

Gal(b1-3)GlcNAc = biological target: Gal(b1-3)GlcNAc
Method in brief: as §1

[10] = biological target: Gal(b1-3)GlcNAc(a1-3)Gal(b1-4)GlcNAc
Method in brief: as §1

[11] = biological target: Gal(b1-3)GlcNAc(a1-6)Gal(b1-4)GlcNAc
Method in brief: as §1

Gal(b1-3)GlcNAc(b1-2)Man = biological target: Gal(b1-3)GlcNAc(b1-2)Man
Method in brief: as §1

[12] = biological target: Gal(b1-3)GlcNAc(b1-2)Man(a1-3)[Gal(b1-3)GlcNAc(b1-2)Man(a1-6)]Man(b1-4)GlcNAc(b1-4)GlcNAc
Method in brief: as §1

[13] = biological target: Gal(b1-3)GlcNAc(b1-2)Man(a1-3)[Gal(b1-3)GlcNAc(b1-2)Man(a1-6)]Man(b1-4)GlcNAc(b1-4)[Fuc(a1-6)]GlcNAc
Method in brief: as §1

[14] = biological target: Gal(b1-3)GlcNAc(b1-2)Man(a1-3)[GlcNAc(b1-4)][Gal(b1-3)GlcNAc(b1-2)Man(a1-6)]Man(b1-4)GlcNAc(b1-4)GlcNAc
Method in brief: as §1

[15] = biological target: Gal(b1-3)GlcNAc(b1-2)[Gal(b1-3)GlcNAc(b1-6)]Man(a1-6)[Gal(b1-3)GlcNAc(b1-2)Man(a1-3)]Man(b1-4)GlcNAc(b1-4)GlcNAc
Method in brief: as §1

[16] = biological target: Gal(b1-3)GlcNAc(b1-3)Gal(b1-3)GlcNAc
Method in brief: as §1

[17] = biological target: Gal(b1-3)GlcNAc(b1-3)Gal(b1-4)Glc
Method in brief: as §1

[18] = biological target: Gal(b1-3)GlcNAc(b1-3)Gal(b1-4)GlcNAc
Method in brief: as §1

[19] = biological target: Gal(b1-3)GlcNAc(b1-3)Gal(b1-4)GlcNAc(b1-2)Man(a1-3)[Gal(b1-3)GlcNAc(b1-3)Gal(b1-4)GlcNAc(b1-2)Man(a1-6)]Man(b1-4)GlcNAc(b1-4)GlcNAc
Method in brief: as §1

[20] = biological target: Gal(b1-3)GlcNAc(b1-3)Gal(b1-4)GlcNAc(b1-2)[Gal(b1-3)GlcNAc(b1-3)Gal(b1-4)GlcNAc(b1-6)]Man(a1-6)[Gal(b1-3)GlcNAc(b1-3)Gal(b1-4)GlcNAc(b1-2)Man(a1-3)]Man(b1-4)GlcNAc(b1-4)[Fuc(a1-6)]GlcNAc
Method in brief: as §1

[21] = biological target: Gal(b1-3)GlcNAc(b1-3)Gal(b1-4)GlcNAc(b1-3)Gal(b1-4)GlcNAc(b1-2)[Gal(b1-3)GlcNAc(b1-3)Gal(b1-4)GlcNAc(b1-3)Gal(b1-4)GlcNAc(b1-6)]Man(a1-6)[Gal(b1-3)GlcNAc(b1-3)Gal(b1-4)GlcNAc(b1-3)Gal(b1-4)GlcNAc(b1-2)Man(a1-3)]Man(b1-4)GlcNAc(b1-4)[Fuc(a1-6)]GlcNAc
Method in brief: as §1

[22] = biological target: Gal(b1-3)GlcNAc(b1-3)Gal(b1-4)GlcNAc(b1-6)[Gal(b1-3)GlcNAc(b1-3)]Gal(b1-4)Glc
Method in brief: as §1

[23] = biological target: Gal(b1-3)GlcNAc(b1-3)Gal(b1-4)[Fuc(a1-3)]GlcNAc
Method in brief: as §1

[24] = biological target: Gal(b1-3)GlcNAc(b1-3)Gal(b1-4)[Fuc(a1-3)]GlcNAc(b1-6)[Gal(b1-3)GlcNAc(b1-3)]Gal(b1-4)Glc
Method in brief: as §1

[25] = biological target: Gal(b1-3)GlcNAc(b1-3)GalNAc
Method in brief: as §1

[26] = biological target: Gal(b1-3)GlcNAc(b1-6)Gal(b1-4)GlcNAc
Method in brief: as §1

[27] = biological target: Gal(b1-3)GlcNAc(b1-6)GalNAc
Method in brief: as §1

B1: LF82 (Escherichia coli) (protein)
chain: ADWGPCRTASGDPFIFVTSFTKNIQNPTDNVTGQTYPDFYQWALGDKYSGVCECPSPNPTEARPTLYKTESTLAAGHNSTYFKITNNLEVSTRVYIANVGNVQVPFINKSNSQPGRECDQPTFGWTTGSKGQLSLYIAKPFVGEQNIPQTIIVSVFGTKKENVYSSVPISQVLLSGKVTVTQGCELAAGTSLDIDFGEYQAHDFKGRTGQPPQNVQKIQKELTFNCTNISDGVHIYLSLEGTPNAAYPSAISLGNADVGAVIEDGKGNILKPNDSNSLLEMNPGSLYEYVKRKVTTTITAYPVSTTGKLPAAGDYSGVATMHVELDGGGGGGGGGGATTDLGAKGTLKFSLKISQGHHHHHH
glycan array binding signal (z-score) [1]: -0.81 | glycan array binding signal (z-score) [2]: -0.975 | glycan array binding signal (z-score) (Gal(a1-4)Gal(b1-4)Glc): -0.738 | glycan array binding signal (z-score) (Gal(a1-4)Gal(b1-4)GlcNAc): -0.545 | glycan array binding signal (z-score) [3]: 0.185 | glycan array binding signal (z-score) [4]: -1.42 | glycan array binding signal (z-score) (Gal(a1-4)GlcNAc): -1.69 | glycan array binding signal (z-score) (Gal(a1-6)Glc): -1 | glycan array binding signal (z-score) (Gal(b1-2)Gal): -0.109 | glycan array binding signal (z-score) (Gal(b1-3)Gal): -0.896 | glycan array binding signal (z-score) (Gal(b1-3)Gal(b1-4)GlcNAc): -0.773 | glycan array binding signal (z-score) (Gal(b1-3)GalNAc): -0.509 | glycan array binding signal (z-score) [5]: 2.29 | glycan array binding signal (z-score) [6]: -1.51 | glycan array binding signal (z-score) (Gal(b1-3)GalNAc(b1-3)Gal): -1.33 | glycan array binding signal (z-score) [7]: 0.365 | glycan array binding signal (z-score) [8]: -0.817 | glycan array binding signal (z-score) [9]: 0.679 | glycan array binding signal (z-score) (Gal(b1-3)GlcNAc): -0.331 | glycan array binding signal (z-score) [10]: -0.513 | glycan array binding signal (z-score) [11]: -0.262 | glycan array binding signal (z-score) (Gal(b1-3)GlcNAc(b1-2)Man): -1.28 | glycan array binding signal (z-score) [12]: 0.23 | glycan array binding signal (z-score) [13]: -0.589 | glycan array binding signal (z-score) [14]: 1.02 | glycan array binding signal (z-score) [15]: -0.229 | glycan array binding signal (z-score) [16]: 0.419 | glycan array binding signal (z-score) [17]: -0.76 | glycan array binding signal (z-score) [18]: 1.03 | glycan array binding signal (z-score) [19]: -0.239 | glycan array binding signal (z-score) [20]: 0.204 | glycan array binding signal (z-score) [21]: 1.42 | glycan array binding signal (z-score) [22]: -0.759 | glycan array binding signal (z-score) [23]: 0.726 | glycan array binding signal (z-score) [24]: 1.49 | glycan array binding signal (z-score) [25]: -0.805 | glycan array binding signal (z-score) [26]: 0.843 | glycan array binding signal (z-score) [27]: -0.789
